# Results as given in the supplement of paper PMC7024190.
# This is one part of the list. Single values are uncertain here, since repeats match poorly.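 The cells were human embryonic kidney cells carrying a Renilla luciferase gene, driven by the HSV-TK promoter, on a plasmid put in briefly by transfection. This is the first-round screen of about ten thousand compounds, looking for ones that raise reporter output.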
# System: HEK 293FT
# Test: log relative Renilla luciferase luminescence (reporter expression vs reference, reference not stated) (log (base not stated)); higher = higher recombinant reporter expression
# Settings: 10 µM; time after transfection 48 h
# Experimental: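 HEK 293FT cells transiently transfected with pRL-TK (Renilla luciferase) were treated with compounds at 10 uM and luminescence was read about 42 h later. Values are log relative Renilla luminescence (log base and reference not stated). Single-pass screen; 2080 natural products library.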
row,Compound,log
1,"CC1(C)C(=O)CC[C@]2(C)[C@@H]1CC[C@@]13C[C@@H](CC[C@H]12)[C@@H](C(=O)O)C3 (single isomer, unassigned; ent-3) [ent-3-Oxokauran-17-oic acid]",0.0076
2,COc1cccc(O)c1 [m-Methoxyphenol],0.0171
3,CCCCCCCCCCCCCCCC(=O)O[C@H]1CC[C@@]2(C)C(=CC[C@H]3[C@@H]4CC[C@H]([C@H](C)CC[C@@H](CC)C(C)C)[C@@]4(C)CC[C@@H]32)C1 [Sitosteryl palmitate],-0.341
4,COc1cc2ccc(=O)oc2c2c1OC(C)(C)C=C2 [Braylin],-0.565
5,C[C@@H]1CC[C@]2(C(=O)O)CC[C@]3(C)C(=CC[C@@H]4[C@@]5(C)C(CO)=CC(C)(C)[C@@H]5CC[C@]43C)[C@@H]2[C@]1(C)O [Hyptadienic acid],-0.334
6,C[C@@H]1C[C@H]2O[C@@]3(O[C@@H]2C(C)(C)O)[C@H](O)[C@@]2(C)[C@@H]4CC[C@H]5C(C)(C)[C@@H](O[C@@H]6OC[C@@H](O)[C@H](O[C@@H]7OC[C@@H](O)[C@H](O)[C@H]7O)[C@H]6O)CC[C@@]56C[C@@]46CC[C@]2(C)[C@@H]13 [Cimiside B],0.226
7,C=C1CC[C@H]2C(=C)CC[C@@H]3[C@H](OC(=O)[C@H]3CS(=O)(=O)O)[C@@H]12 [Sulfocostunolide A],-0.0729
8,CC1(O)CC(CC2(C)OC2COc2ccc3ccc(=O)oc3c2)OC1=O (stereo not given) [Excavatin M],-0.259
9,COC(=O)C1CC23C(=O)C4CC5N(CC4C)CC(CCC4=C2C1CC4)C53C (stereo not given) [Daphniyunnine A],0.035
10,CC(C)(O)[C@@H]1Cc2c(cc3oc(CO)cc(=O)c3c2O)O1 [Angelicain],0.0711
11,C=C1CC[C@@H]2[C@H]([C@H]3[C@H]1CC[C@]3(C)[C@@H](CC(C)C)c1c(O)c(C=O)c(O)c(C=O)c1O)C2(C)C [Macrocarpal C],-0.0315
12,"CC(=O)O[C@H]1CC[C@]2(C)[C@H]3C=C[C@]45OC(=O)[C@@]6(CC[C@@H](C)[C@H](C)[C@H]64)CC[C@@]5(C)[C@]3(C)CC[C@H]2C1(C)C [3-Acetoxy-11-ursen-28,13-olide]",-0.0844
13,C=C(C)[C@H](/C=C/[C@@H](C)[C@H]1CC[C@H]2[C@@H]3CC=C4C[C@@H](OC(C)=O)CC[C@]4(C)[C@H]3CC[C@]12C)CC [22-Dehydroclerosteryl acetate],0.0031
14,COC(=O)c1ccc(O)cc1 [Methyl 4-hydroxybenzoate],-0.248
15,O=C(O)[C@@H]1CCCN1 [Proline],0.115
16,COc1c(OC(C)=O)cc(O)c2c(=O)cc(-c3ccccc3)oc12 [5-Hydroxy-7-acetoxy-8-methoxyflavone],0.062
17,CCCCCCCCCCCCCCCCCCCCCCCCCc1cc(O)cc(O)c1 [5-Pentacosylresorcinol],0.199
18,CC(=O)Oc1ccc(C2CC(=O)c3c(OC(C)=O)cc(OC(C)=O)cc3O2)cc1 (stereo not given) [Naringenin triacetate],0.0164
19,COc1c2ccoc2c(Oc2c3ccoc3c(O)c3oc(=O)ccc23)c2oc(=O)ccc12 [Rivulobirin B],-0.0599
20,C=C(C)C(O)COc1c2occc2cc2ccc(=O)oc12 (stereo not given) [Isogosferol],-0.583

row,Compound,log
1,Oc1ccc2c(c1)CN1CC[C@H](O)C1=N2 [Vasicinol],-0.123
2,COc1ccc(-c2oc3cc(OC)c(OC)c(OC(C)=O)c3c(=O)c2OC)cc1OC [Artemetin acetate],-0.0636
3,COc1cc(C2Oc3cc4oc(=O)ccc4cc3OC2CO)cc(OC)c1O (stereo not given) [Moluccanin],-0.39
4,C=C(C)[C@@H](O)[C@@H](O)c1c(OC)ccc2ccc(=O)oc12 [Murrangatin],-0.247
5,COc1cc(C(=O)OCC2=C[C@@H](O)[C@@H]3C=CO[C@@H](O[C@@H]4O[C@H](CO)[C@@H](O)[C@H](O)[C@H]4O)[C@H]23)ccc1O [10-O-Vanilloylaucubin],0.153
6,COc1cc(C[C@H]2COC(=O)[C@@H]2Cc2ccc(O)c(OC)c2)ccc1O [Matairesinol],-0.142
7,CC1(C)CC[C@]2(C)CC[C@]3(C)[C@H]4CC=C5[C@@H](CC[C@H](O)C5(C)C)[C@]4(C)CC[C@@]3(C)[C@@H]2C1 [5-Glutinen-3-ol],-0.15
8,COc1c2occc2cc2ccc(=O)oc12 [Xanthotoxin],0.0164
9,COc1cc(OC)c2ccc(=O)oc2c1OCC=C(C)C [Artanin],-0.21
10,CCCCCCCCC/C=C/CC/C=C/[C@@H](O)C(CO[C@H]1O[C@H](CO)[C@@H](O)[C@H](O)[C@H]1O)NC(=O)[C@H](O)CCCCCCCCCCCCCC (stereo not given in full) [Soyacerebroside I],-0.0367
11,Cc1ccc2[nH]c3ccc(O)cc3c2c1 [Glycozolinine],-0.462
12,C=C1C(=O)[C@]23C[C@H]1C[C@@H](O)[C@H]2[C@]12CO[C@@H]4OC[C@](C)(CC[C@@H]1OC3=O)[C@@H]42 [Sculponeatin A],-0.125
13,"O=C1C[C@@H](c2cc(O)cc(O)c2)Oc2cc(O)cc(O)c21 [3',5,5',7-Tetrahydroxyflavanone]",-0.354
14,CC1=CC(=O)CC(C)(C)[C@@]1(O)/C=C/[C@@H](C)O [Vomifoliol],-0.273
15,COc1cc(/C=C/CO)ccc1O[C@@H]1O[C@H](CO)[C@@H](O)[C@H](O)[C@H]1O [Coniferin],-0.00814
16,"CC1(C)OC[C@]2(C[C@@]34CC[C@@H]5C(C)(C)CCC[C@@]5(C)[C@@H]3CC[C@@H]2C4)O1 [ent-16beta,17-Isopropylidenedioxykaurane]",0.085
17,COC(=O)c1c(O)cccc1O[C@@H]1O[C@H](CO)[C@@H](O)[C@H](O)[C@H]1O [6-(beta-D-glucopyranosyloxy)-Salicylic acid methyl ester],-0.00447
18,CC1(C)C=Cc2c(c(O)cc3ccc(=O)oc23)O1 [Norbraylin],-0.341
19,COc1c(O)c(=O)n2c3ccccc3c3ccnc1c32 [5-Hydroxy-4-methoxycanthin-6-one],0.252
20,COc1ccc(-c2cc(=O)c3c(O)cc(O)c(-c4cc(-c5cc(=O)c6c(O)cc(OC)cc6o5)ccc4O)c3o2)cc1 [Putraflavone],-0.401

# Laid out differently: results already given
row | Compound | log
10 | CCCCCCCCC/C=C/CC/C=C/[C@@H](O)C(CO[C@H]1O[C@H](CO)[C@@H](O)[C@H](O)[C@H]1O)NC(=O)[C@H](O)CCCCCCCCCCCCCC (stereo not given in full) [Soyacerebroside I] | -0.0367
11 | Cc1ccc2[nH]c3ccc(O)cc3c2c1 [Glycozolinine] | -0.462
